Assay results: doi:10.1101/2024.12.19.627432
No constants are given. Whether binding was seen depends on the method and setting. Binding seen in cells or lysates may run through a third protein. A yes stands for co-enrichment or nearness to the bait. Other partners may have been found. Each block holds one molecule with its values, some of them ahead of it.

Chains of the proteins cited; added tags and fusions are not shown. Residues count along the entry.
UniProt O60260: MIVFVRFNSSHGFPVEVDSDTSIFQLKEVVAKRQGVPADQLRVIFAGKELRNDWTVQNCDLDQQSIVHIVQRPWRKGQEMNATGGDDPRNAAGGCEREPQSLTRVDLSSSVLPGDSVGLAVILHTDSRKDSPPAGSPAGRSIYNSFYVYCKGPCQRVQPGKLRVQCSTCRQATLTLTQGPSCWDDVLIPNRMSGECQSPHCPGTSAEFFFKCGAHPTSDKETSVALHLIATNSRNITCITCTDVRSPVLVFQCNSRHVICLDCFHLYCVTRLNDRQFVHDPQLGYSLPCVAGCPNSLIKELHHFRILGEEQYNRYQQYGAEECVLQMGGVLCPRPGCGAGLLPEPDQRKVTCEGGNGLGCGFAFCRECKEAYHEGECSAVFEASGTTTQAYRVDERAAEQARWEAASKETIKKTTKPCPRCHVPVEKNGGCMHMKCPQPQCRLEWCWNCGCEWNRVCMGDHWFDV
UniProt Q9NWU1, residues 28-459: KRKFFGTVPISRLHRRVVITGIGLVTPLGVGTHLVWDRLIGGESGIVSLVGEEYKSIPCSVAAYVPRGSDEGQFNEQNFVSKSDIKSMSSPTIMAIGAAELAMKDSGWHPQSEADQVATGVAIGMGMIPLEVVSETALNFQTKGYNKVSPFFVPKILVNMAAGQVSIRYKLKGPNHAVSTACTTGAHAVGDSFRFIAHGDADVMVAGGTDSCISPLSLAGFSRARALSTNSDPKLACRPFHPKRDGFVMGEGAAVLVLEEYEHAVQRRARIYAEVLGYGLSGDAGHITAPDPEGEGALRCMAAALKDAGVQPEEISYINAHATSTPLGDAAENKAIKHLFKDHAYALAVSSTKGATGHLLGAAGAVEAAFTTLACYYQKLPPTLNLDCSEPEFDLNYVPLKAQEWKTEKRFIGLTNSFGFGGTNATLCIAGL
UniProt P14618: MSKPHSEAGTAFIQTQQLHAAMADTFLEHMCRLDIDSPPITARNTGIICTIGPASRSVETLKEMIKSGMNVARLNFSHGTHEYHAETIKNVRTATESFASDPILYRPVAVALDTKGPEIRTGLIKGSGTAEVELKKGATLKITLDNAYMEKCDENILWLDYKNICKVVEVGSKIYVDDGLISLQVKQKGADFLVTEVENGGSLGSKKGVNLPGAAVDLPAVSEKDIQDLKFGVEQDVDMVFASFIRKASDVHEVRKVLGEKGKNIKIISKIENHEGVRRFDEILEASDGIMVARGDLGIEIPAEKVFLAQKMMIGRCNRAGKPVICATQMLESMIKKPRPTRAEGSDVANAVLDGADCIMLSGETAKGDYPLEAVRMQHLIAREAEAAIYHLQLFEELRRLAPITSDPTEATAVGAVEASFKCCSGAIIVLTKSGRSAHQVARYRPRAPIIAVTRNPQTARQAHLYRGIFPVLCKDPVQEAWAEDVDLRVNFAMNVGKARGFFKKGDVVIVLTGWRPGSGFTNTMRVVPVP
UniProt P54725: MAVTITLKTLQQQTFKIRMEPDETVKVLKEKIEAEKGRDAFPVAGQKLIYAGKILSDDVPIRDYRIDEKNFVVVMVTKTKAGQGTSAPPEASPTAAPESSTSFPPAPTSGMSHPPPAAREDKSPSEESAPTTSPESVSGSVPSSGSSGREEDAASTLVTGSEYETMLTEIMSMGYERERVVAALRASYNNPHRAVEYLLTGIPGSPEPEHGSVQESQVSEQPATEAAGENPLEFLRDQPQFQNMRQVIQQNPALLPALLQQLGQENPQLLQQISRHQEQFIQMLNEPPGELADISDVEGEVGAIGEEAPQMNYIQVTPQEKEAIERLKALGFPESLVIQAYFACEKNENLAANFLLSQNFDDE

Columns and labels:
Flag-Halo-Parkin = Flag-Halo-Parkin (UniProt O60260); test: proximity labelling
Flag-Halo-Parkin, O60260 = test: proximity labelling; conditions: remark: other sources report otherwise

Molecule: OXSM (from UniProt Q9NWU1 28-459) (enzyme)
- binding (Flag-Halo-Parkin): binds

B1: RIPK1, Q13546 1-671 (enzyme)
chain: MQPDMSLNVIKMKSSDFLESAELDSGGFGKVSLCFHRTQGLMIMKTVYKGPNCIEHNEALLEEAKMMNRLRHSRVVKLLGVIIEEGKYSLVMEYMEKGNLMHVLKAEMSTPLSVKGRIILEIIEGMCYLHGKGVIHKDLKPENILVDNDFHIKIADLGLASFKMWSKLNNEEHNELREVDGTAKKNGGTLYYMAPEHLNDVNAKPTEKSDVYSFAVVLWAIFANKEPYENAICEQQLIMCIKSGNRPDVDDITEYCPREIISLMKLCWEANPEARPTFPGIEEKFRPFYLSQLEESVEEDVKSLKKEYSNENAVVKRMQSLQLDCVAVPSSRSNSATEQPGSLHSSQGLGMGPVEESWFAPSLEHPQEENEPSLQSKLQDEANYHLYGSRMDRQTKQQPRQNVAYNREEERRRRVSHDPFAQQRPYENFQNTEGKGTAYSSAASHGNAVHQPSGLTSQPQVLYQNNGLYSSHGFGTRPLDPGTAGPRVWYRPIPSHMPSLHNIPVPETNYLGNTPTMPFSSLPPTDESIKYTIYNSTGIQIGAYNYMEIGGTSSSLLDSTNTNFKEEPAAKYQAIFDNTTSLTDKHLDPIRENLGKHWKNCARKLGFTQSQIDEIDHDYERDGLKEKVYQMLQKWVMREGIKGATVGKLAQALHQCSRIDLLSSLIYVSQN
modifications: here or on the partner: SiR-CA bound covalently to the Halo tag
- binding (Flag-Halo-Parkin, O60260): binds

B3: ECI1 (enzyme, UniProt P42126 42-302)
chain: FGSQRVLVEPDAGAGVAVMKFKNPPVNSLSLEFLTELVISLEKLENDKSFRGVILTSDRPGVFSAGLDLTEMCGRSPAHYAGYWKAVQELWLRLYQSNLVLVSAINGACPAGGCLVALTCDYRILADNPRYCIGLNETQLGIIAPFWLKDTLENTIGHRAAERALQLGLLFPPAEALQVGIVDQVVPEEQVQSTALSAIAQWMAIPDHARQLTKAMMRKATASRLVTQRDADVQNFVSFISKDSIQKSLQMYLERLKEEKG
- binding (Flag-Halo-Parkin): binds

B4: PARK7, Q99497 1-189 (protein)
chain: MASKRALVILAKGAEEMETVIPVDVMRRAGIKVTVAGLAGKDPVQCSRDVVICPDASLEDAKKEGPYDVVVLPGGNLGAQNLSESAAVKEILKEQENRKGLIAAICAGPTALLAHEIGFGSKVTTHPLAKDKMMNGGHYTYSENRVEKDGLILTSRGPGTSFEFALAIVEALNGKEVAAQVKAPLVLKD
modifications: here or on the partner: SiR-CA bound covalently to the Halo tag
- binding (Flag-Halo-Parkin, O60260): binds

B5: TBC1D15 (protein, UniProt Q8TC07 1-691)
chain: MAAAGVVSGKIIYEQEGVYIHSSCGKTNDQDGLISGILRVLEKDAEVIVDWRPLDDALDSSSILYARKDSSSVVEWTQAPKERGHRGSEHLNSYEAEWDMVNTVSFKRKPHTNGDAPSHRNGKSKWSFLFSLTDLKSIKQNKEGMGWSYLVFCLKDDVVLPALHFHQGDSKLLIESLEKYVVLCESPQDKRTLLVNCQNKSLSQSFENLLDEPAYGLIQAGLLDRRKLLWAIHHWKKIKKDPYTATMIGFSKVTNYIFDSLRGSDPSTHQRPPSEMADFLSDAIPGLKINQQEEPGFEVITRIDLGERPVVQRREPVSLEEWTKNIDSEGRILNVDNMKQMIFRGGLSHALRKQAWKFLLGYFPWDSTKEERTQLQKQKTDEYFRMKLQWKSISQEQEKRNSRLRDYRSLIEKDVNRTDRTNKFYEGQDNPGLILLHDILMTYCMYDFDLGYVQGMSDLLSPLLYVMENEVDAFWCFASYMDQMHQNFEEQMQGMKTQLIQLSTLLRLLDSGFCSYLESQDSGYLYFCFRWLLIRFKREFSFLDILRLWEVMWTELPCTNFHLLLCCAILESEKQQIMEKHYGFNEILKHINELSMKIDVEDILCKAEAISLQMVKCKELPQAVCEILGLQGSEVTTPDSDVGEDENVVMTPCPTSAFQSNALPTLSASGARNDSPTQIPVSSDVCRLTPA
- binding (Flag-Halo-Parkin): binds

Continued, values first:

- binding (Flag-Halo-Parkin): binds
Molecule: ATP5F1B (from UniProt P06576 48-529) (enzyme)

- binding (Flag-Halo-Parkin): binds
Molecule: PKM (from UniProt P14618 1-531) (enzyme)

- binding (Flag-Halo-Parkin): binds
Molecule: RAD23A (from UniProt P54725 1-363)

- binding (Flag-Halo-Parkin): binds
Molecule: VCP (from UniProt P55072 1-806) (enzyme)

- binding (Flag-Halo-Parkin): binds
B2: BDH1 (enzyme, UniProt Q02338 47-343)
chain: ASAAEPVGSKAVLVTGCDSGFGFSLAKHLHSKGFLVFAGCLMKDKGHDGVKELDSLNSDRLRTVQLNVCSSEEVEKVVEIVRSSLKDPEKGMWGLVNNAGISTFGEVEFTSLETYKQVAEVNLWGTVRMTKSFLPLIRRAKGRVVNISSMLGRMANPARSPYCITKFGVEAFSDCLRYEMYPLGVKVSVVEPGNFIAATSLYSPESIQAIAKKMWEELPEVVRKDYGKKYFDEKIAKMETYCSSGSTDTSPVIDAVTHALTATTPYTRYHPMDYYWWLRMQIMTHLPGAISDMIYIR
